In data set [1] the test system is P. falciparum chloroquine-resistant and mefloquine-sensitive W2 clone. The data set is described as follows: Anti-Plasmodium falciparum activity assay (SYBR, erythrocytic asexual stages). Conditions: CC50 (BGM)/IC50 (P. falciparum). Format: cell-based. As to the method:
In vitro assay with P. falciparum culture were performed as described previously. […] The activity was measured using the SYBR assay with the parasite suspension (0.5% parasitemia and 2% hematocrit) with minor modifications. The test compounds, in serial dilutions, were incubated in “U” bottom 96-wells plates. After 48 h at 37 °C, the culture supernatant was removed and replaced by 100 µL of lysis buffer solution [Tris (20 mM; pH 7.5), EDTA (5 mM), saponin (0.008%; wt/vol), and Triton X 100 (0.08%; vol/vol)] followed by addition of 0.2 µL/mL SYBR Safe (Sigma-Aldrich, Carlsbad, CA, USA). The plate content was transferred to a flat bottom plate and incubated in the dark for 30 min. The plate was read in a fluorometer (Synergy H4 Hibrid Reader, Biotek) with excitation at 485 nm and 535 nm of emission. In all tests, the compound activities were expressed by the 50% inhibitory concentration of the parasite growth (IC50) when compared to the drug-free controls and estimated using the curve-fitting software Origin 8.0 (OriginLab Corporation, Northampton, MA, USA).

Data set [2] relates to T. cruzi Tulahuen strain in L929 cells. The data set is described as follows: Anti-Trypanosoma cruzi activity assay (infected L929 cells, beta-galactosidase reporter). Conditions: CC50 L929 cells/IC50 T. cruzi. Type of data set: cell-based. On the procedure: Their half-maximum cytotoxic concentrations (CC50) and their selectivity indices (SI), obtained as the ratio of the cytotoxic concentration against the bioactive concentration are shown in Table 2. Theoretically, the higher the SI value, the greater the effectiveness for the target and the lower the toxicity of the compound, characterizing a potentially safe and selective drug.
The in vitro anti-T. cruzi activity was evaluated on L929 cells (mouse fibroblasts) infected with Tulahuen strain of the parasite expressing the Escherichia coli β-galactosidase as reporter gene according to the method described previously. Briefly, four thousand L929 cells were added to each well of a 96-well microtiter plate. After an overnight incubation, a 10 fold excess of trypomastigotes were added to the cells, incubated for 2 h, then replaced with 200 μL of fresh medium and incubated for additional 48 h to establish the infection. For IC50 determination, the cells were exposed to each synthesized compound at serial decreasing dilutions and the plate was incubated for 96 h. Afterwards, 50 μL of 500 μM chlorophenol red beta-D-galactopyranoside (CPRG) in 0.5% Nonidet P40 was added to each well, and the plate incubated for 16 to 20 h, after which the absorbance at 570 nm was measured. Controls with uninfected cells, untreated infected cells, infected cells treated with benznidazole at 3.8 μM (positive control) or 1% DMSO were used. The results were expressed as the percentage of T. cruzi growth inhibition in compound tested cells as compared to the infected cells and untreated cells. The IC50 values were calculated by linear interpolation. Quadruplicates were run in the same plate, and the experiments were repeated at least once.
IC50 over T. cruzi and L929 cells were determined by linear interpolation and the selectivity index (SI) was calculated by the ratio of CC50 L929 cells/ IC50 T. cruzi.

Several values for one entry are separate records, joined by “and”; a condition that tells them apart may be missing. Equal entries are not always repeated. Where only a bound is given, the exact number is not on record here.

Regarding `O=C1C(c2ccccc2F)N(c2ccc(F)cc2)C(=O)CN1c1ccc(Cl)cc1` (stereo not shown) [Compound 20], the SI in data set [1] is given as less than 1; in data set [2], 2.

In the case of `COc1ccc(C2C(=O)N(c3ccc(Cl)cc3)CC(=O)N2c2ccccc2)cc1Br` (stereo not shown) [Compound 8], the SI in data set [2] was > 50 and >55.

With `O=C1C(c2ccccc2F)N(c2ccccc2)C(=O)CN1c1ccc(Cl)cc1` (stereo not shown) [Compound 5], the SI in data set [1] is given as less than 1; in data set [2] it was 3.

The compound `O=C(Cn1ccnc1[N+](=O)[O-])NCc1ccccc1` [Benznidazole, reference compound] gave an SI in data set [2] of 1080.

With `O=C1C(c2ccc(Cl)cc2)N(c2ccc(F)cc2)C(=O)CN1c1ccc(Cl)cc1` (stereo not shown) [Compound 21], the SI in data set [2] was determined as 1.

Consider `O=C1C(c2c(F)cccc2Cl)N(c2ccccc2)C(=O)CN1c1ccc(Cl)cc1` (stereo not shown) [Compound 22], for which the SI in data set [2] was > 50 and >56.

With `O=C1C(c2ccc(O)c(Br)c2)N(c2ccccc2)C(=O)CN1c1ccc(Cl)cc1` (stereo not shown) [Compound 15], the SI in data set [1] was found to be 1; in data set [2], 7.

Values taken from article PMC10893061, “Novel 2,5-Diketopiperazines with In Vitro Activities against Protozoan Parasites of Tropical Diseases” (Pharmaceuticals, 2024).
